In paper PMC12350928:
No constants are given. Whether binding was seen depends on the method and setting. Binding seen in cells or lysates may run through a third protein. Some results given as binding are weak or reduced against the parent protein; the word gives no strength.

Sequences of proteins named here, by UniProt entry; tags and fusion partners are left off.
UniProt P54578: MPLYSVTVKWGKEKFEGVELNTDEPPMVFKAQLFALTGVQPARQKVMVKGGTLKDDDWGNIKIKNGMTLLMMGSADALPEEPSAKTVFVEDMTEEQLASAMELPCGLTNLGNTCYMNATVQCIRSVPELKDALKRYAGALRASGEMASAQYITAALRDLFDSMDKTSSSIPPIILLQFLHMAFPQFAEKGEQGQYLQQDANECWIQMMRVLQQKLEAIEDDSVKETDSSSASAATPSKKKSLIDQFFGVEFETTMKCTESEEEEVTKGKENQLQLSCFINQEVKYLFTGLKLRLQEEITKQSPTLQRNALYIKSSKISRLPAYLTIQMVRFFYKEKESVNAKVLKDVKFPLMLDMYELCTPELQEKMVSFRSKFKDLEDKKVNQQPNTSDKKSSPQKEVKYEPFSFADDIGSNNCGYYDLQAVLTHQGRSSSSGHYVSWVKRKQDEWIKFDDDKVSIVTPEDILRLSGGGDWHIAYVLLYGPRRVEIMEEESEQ

Legend:
[1] = target: His-UCHL5 (UniProt Q9Y5K5); assay: co-IP; HEK293T cells co-transfected with Flag-USP14, His-UCHL5 and GFP-PKCα; immunoprecipitated with antibodies against Flag, His and GFP
[2] = target: Flag-USP14 (UniProt P54578); assay: as above
[3] = target: USP14 (endogenous) (human (endogenous in CAL62)) (UniProt P54578); assay: co-IP; endogenous proteins in CAL62 lysate; immunoprecipitated with specific antibodies against USP14, UCHL5 or PKCα (IgG negative control), Protein A/G magnetic beads, RIPA buffer, 4 °C
[4] = target: UCHL5 (endogenous) (human (endogenous in CAL62)) (UniProt Q9Y5K5); assay: as above

| Substance | binding [1] | binding [2] | binding [3] | binding [4] |
| --- | --- | --- | --- | --- |
| GFP-PKCα (from UniProt P17252 1-672) (enzyme) | binds | binds |  |  |
| PKCα (endogenous) (from UniProt P17252 1-672) (enzyme) |  |  | binds | binds |
